The target in test [1] is DivIB (S. aureus) (UniProt Q2FZ91). The test is described as follows: two-hybrid.
The target in test [2] is EzrA (S. aureus) (UniProt Q2FXK8). The test is described as follows: two-hybrid.

Amino acid sequences for entries named in this document (tags omitted). A change or cut given only in a name is not applied to a line headed by its entry.
UniProt Q2FXK8, whole entry: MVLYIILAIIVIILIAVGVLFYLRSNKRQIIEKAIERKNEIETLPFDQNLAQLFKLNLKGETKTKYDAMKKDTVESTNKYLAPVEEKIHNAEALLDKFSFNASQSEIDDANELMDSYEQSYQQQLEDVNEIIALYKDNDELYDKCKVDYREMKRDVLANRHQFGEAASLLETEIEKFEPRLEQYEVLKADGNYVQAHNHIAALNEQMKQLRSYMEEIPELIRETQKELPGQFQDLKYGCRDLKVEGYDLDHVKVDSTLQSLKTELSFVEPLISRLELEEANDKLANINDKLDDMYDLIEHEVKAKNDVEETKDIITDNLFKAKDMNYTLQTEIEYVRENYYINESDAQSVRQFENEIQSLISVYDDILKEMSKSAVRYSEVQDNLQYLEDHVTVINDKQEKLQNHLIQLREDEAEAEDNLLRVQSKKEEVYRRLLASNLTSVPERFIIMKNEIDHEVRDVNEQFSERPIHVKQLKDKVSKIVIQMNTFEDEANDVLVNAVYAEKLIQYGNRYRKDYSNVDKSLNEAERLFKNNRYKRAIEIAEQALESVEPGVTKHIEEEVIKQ

These are yes or no findings as the source states them, for the method shown. Some entries that bind do so weakly or less than the wild type. Where a sequence is shown, tags or fusion partners need not be part of it.

In the case of “T25-PBP1ΔPASTA (S. aureus PBP1 without the PASTA domains, M1-S595) (from UniProt Q2FZ94 1-595) (domain or fragment)”, the binding entry in test [1] and in test [2] was “binds” in each case.

B1: S. aureus PBP1 (bacterial two-hybrid fusion) (protein, UniProt Q2FZ94 1-744)
chain: MAKQKIKIKKNKIGAVLLVGLFGLLFFILVLRISYIMITGHSNGQDLVMKANEKYLVKNAQQPERGKIYDRNGKVLAEDVERYKLVAVIDKKASANSKKPRHVVDKKETAKKLSTVINMKPEEIEKRLSQKKAFQIEFGRKGTNLTYQDKLKIEKMNLPGISLLPETERFYPNGNFASHLIGRAQKNPDTGELKGALGVEKIFDSYLSGSKGSLRYIHDIWGYIAPNTKKEKQPKRGDDVHLTIDSNIQVFVEEALDGMVERYQPKDLFAVVMDAKTGEILAYSQRPTFNPETGKDFGKKWANDLYQNTYEPGSTFKSYGLAAAIQEGAFDPDKKYKSGHRDIMGSRISDWNRVGWGEIPMSLGFTYSSNTLMMHLQDLVGADKMKSWYERFGFGKSTKGMFDGEAPGQIGWSNELQQKTSSFGQSTTVTPVQMLQAQSAFFNDGNMLKPWFVNSVENPVSKRQFYKGQKQIAGKPITKDTAEKVEKQLDLVVNSKKSHAANYRIDGYEVEGKTGTAQVAAPNGGGYVKGPNPYFVSFMGDAPKKNPKVIVYAGMSLAQKNDQEAYELGVSKAFKPIMENTLKYLNVGKSKDDTSNAEYSKVPDVEGQDKQKAIDNVSAKSLEPVTIGSGTQIKAQSIKAGNKVLPHSKVLLLTDGDLTMPDMSGWTKEDVIAFENLTNIKVNLKGSGFVSHQSISKGQKLTEKDKIDVEFSSENVDSNSTNNSDSNSDDKKKSDSKTDKDKSD
With B1, the binding entry in test [1] and in test [2] was “binds” each time.
